# Measured data: PubChem BioAssay AID1159578 (Peter MacCallum Cancer Centre, 2015)
# Assay: 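Genome-wide hunt for genes controlling movement of lymphatic endothelial cells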 (primary screen)
# Cells: human lymphatic endothelial cells
# Reagents: siRNA pool against human genes, 40 nM
# Timing: 48 h after transfection
# Detection: 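Cells stained with dye and imaged after a scratch; covered wound area and nuclei counted, duplicates averaged, migration set against mock wells and turned into a robust z-score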
# Reading the numbers: migration robust z-score: higher = faster migration into the scratch; nuclei per well: higher = more cells in the well
# Call rule: 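Pools averaging fewer than 3300 nuclei are never called; remaining pools count as changed when migration robust z lies outside -2 to 2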
# Meaning of the calls: active = migration changed; inactive = no migration change, or too few cells
# The deposit covers about 18,000 reagents; shown is a random part of them. About 1,030 of all reagents (5.7%) count as active. 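Inactive calls also include pools with fewer than 3300 nuclei, whose migration was not assessed.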 The raw values are shown without normalisation. Entries without a mark were called inactive. The numbers tell different reagents against one gene apart. Not all columns of the deposit are shown. Reagent sequences are not shown.
migration robust z-score,migration class with cell-count check,"nuclei per well, duplicate mean",gene symbol,reagent
-0.03,migration z between -2 and 2; enough cells,5848,LGR6,1
0.14,migration z between -2 and 2; enough cells,6968,DTWD2,1
0.55,migration z between -2 and 2; enough cells,6218,DCTPP1,1
-0.08,migration z between -2 and 2; enough cells,5286,MORC2,1
-1.12,migration z between -2 and 2; enough cells,3548,LIMS2,1
0.41,migration z between -2 and 2; enough cells,5684,WDR36,1
1.17,migration z between -2 and 2; enough cells,5936,MOGAT1,1
0.31,migration z between -2 and 2; enough cells,6198,CEP97,1
-0.74,migration z between -2 and 2; enough cells,5346,SIRAL1,1
0,migration z between -2 and 2; enough cells,4654,SLAMF9,1
1.29,migration z between -2 and 2; enough cells,5292,DAB1,1
-0.8,migration z between -2 and 2; enough cells,5796,ACTR2,1
-1.14,migration z between -2 and 2; enough cells,5496,ZBED3,1
0.73,migration z between -2 and 2; enough cells,5192,TATDN1,1
-1.08,migration z between -2 and 2; enough cells,5498,CARMIL2,1
-0.91,migration z between -2 and 2; enough cells,4452,CACNA1H,1
-1.1,migration z between -2 and 2; enough cells,4464,H2AZ1,1
0.51,migration z between -2 and 2; enough cells,6507,REEP6,1
-2.82 (active),migration z below -2; enough cells,5366,TRMT61B,1
0.52,migration z between -2 and 2; enough cells,5799,CATSPERB,1
1.27,migration z between -2 and 2; enough cells,5532,BTBD2,1
-0.37,migration z between -2 and 2; enough cells,6236,TCHP,1
0.58,migration z between -2 and 2; enough cells,5636,MT4,1
-1.13,migration z between -2 and 2; enough cells,4554,TIMM23B,1
-0.18,migration z between -2 and 2; enough cells,5416,METTL27,1
0.7,migration z between -2 and 2; enough cells,5421,S1PR3,1
-1.94,migration z between -2 and 2; enough cells,6027,S1PR3,2
-2.29 (active),migration z below -2; enough cells,3958,KCNQ2,1
-0.06,migration z between -2 and 2; enough cells,5209,EXOC3,1
0.36,migration z between -2 and 2; enough cells,5266,SCAND3,1
-0.68,migration z between -2 and 2; enough cells,5302,CELSR2,1
-3.21 (active),migration z below -2; enough cells,3880,PHACTR1,1
-2.12 (active),migration z below -2; enough cells,5005,CLSTN1,1
-0.15,migration z between -2 and 2; enough cells,3870,OR5H14,1
0.84,migration z between -2 and 2; enough cells,5500,OR2M4,1
0.61,migration z between -2 and 2; enough cells,5554,CAV2,1
-2.18,under 3300 nuclei; migration not judged,3036,RELA,1
0.22,migration z between -2 and 2; enough cells,6066,LRG1,1
-0.86,migration z between -2 and 2; enough cells,5550,FUT3,1
0.1,migration z between -2 and 2; enough cells,5403,SGPP2,1
0.52,migration z between -2 and 2; enough cells,5740,GLE1,1
0.98,migration z between -2 and 2; enough cells,5799,IGSF6,1
-0.1,migration z between -2 and 2; enough cells,4724,SMC2,1
0.66,migration z between -2 and 2; enough cells,6864,H2BC5,1
0.68,migration z between -2 and 2; enough cells,5826,DYNC1I2,1
-1.11,migration z between -2 and 2; enough cells,6063,CEP85,1
-0.2,migration z between -2 and 2; enough cells,3901,KLHDC8B,1
-0.96,migration z between -2 and 2; enough cells,5832,OLR1,1
1.57,migration z between -2 and 2; enough cells,6450,TRIML2,1
-0.57,migration z between -2 and 2; enough cells,5998,TRDMT1,1
-0.52,migration z between -2 and 2; enough cells,6366,COLEC10,1
0.5,migration z between -2 and 2; enough cells,5100,TRIM55,1
-1.62,migration z between -2 and 2; enough cells,5772,TAFA3,1
0.49,migration z between -2 and 2; enough cells,5624,NISCH,1
-3.94 (active),migration z below -2; enough cells,4204,POLR2C,1
-1.77,migration z between -2 and 2; enough cells,3466,WNT7B,1
-1.83,migration z between -2 and 2; enough cells,3920,FNDC9,1

As entered above.
Under “migration robust z-score”, DTWD2 shows 0.14
Result for TCHP under “migration robust z-score”: -0.37
Result of CEP85 under “migration class with cell-count check”: migration z between -2 and 2; enough cells
